Laboratory results: article PMC2275482
No constants are given. Whether binding was seen depends on the method and setting. Binding seen in cells or lysates may run through a third protein. Some binding calls cover weakened binding; strength is not graded here. Where a sequence is shown, tags or fusion partners need not be part of it.

Sequences of proteins named here, by UniProt entry; tags and fusion partners are left off.
UniProt Q13153: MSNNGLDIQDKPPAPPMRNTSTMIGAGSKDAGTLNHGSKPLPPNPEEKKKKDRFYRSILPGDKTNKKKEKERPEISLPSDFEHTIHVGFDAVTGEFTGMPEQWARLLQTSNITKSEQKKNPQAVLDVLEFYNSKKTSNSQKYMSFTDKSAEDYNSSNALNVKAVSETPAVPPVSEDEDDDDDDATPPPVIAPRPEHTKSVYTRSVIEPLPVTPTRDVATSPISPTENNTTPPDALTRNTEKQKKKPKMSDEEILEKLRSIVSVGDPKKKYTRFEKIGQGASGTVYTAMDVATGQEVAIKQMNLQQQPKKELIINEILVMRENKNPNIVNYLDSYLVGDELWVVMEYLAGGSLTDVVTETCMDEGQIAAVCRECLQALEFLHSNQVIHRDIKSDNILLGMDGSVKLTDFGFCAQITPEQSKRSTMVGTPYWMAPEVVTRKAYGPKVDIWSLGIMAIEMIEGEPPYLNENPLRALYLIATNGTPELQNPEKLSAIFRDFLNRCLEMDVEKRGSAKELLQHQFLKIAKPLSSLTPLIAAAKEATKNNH

Target: T1, Flag-tagged Ebp1 (ErbB3 binding protein; CMV10-Ebp1 p52) (UniProt Q9UQ80)
T1 sequence: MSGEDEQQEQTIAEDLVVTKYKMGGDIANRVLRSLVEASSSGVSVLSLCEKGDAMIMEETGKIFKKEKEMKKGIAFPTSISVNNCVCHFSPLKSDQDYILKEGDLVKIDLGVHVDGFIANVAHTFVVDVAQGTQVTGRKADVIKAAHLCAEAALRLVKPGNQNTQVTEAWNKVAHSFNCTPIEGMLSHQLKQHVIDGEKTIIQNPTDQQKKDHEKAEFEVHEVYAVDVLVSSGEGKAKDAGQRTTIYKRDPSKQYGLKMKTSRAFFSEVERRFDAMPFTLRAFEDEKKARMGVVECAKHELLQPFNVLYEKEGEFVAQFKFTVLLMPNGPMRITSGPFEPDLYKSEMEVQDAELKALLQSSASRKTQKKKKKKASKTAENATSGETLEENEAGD
Test: co-IP; Flag-Ebp1 immunoprecipitated from MCF-7 cell lysates with anti-Flag M2 agarose beads and blotted for PAK1 and Flag-Ebp1; cells untreated or treated with HRG 20 ng/ml for 10 min

| Substance | binding |
| --- | --- |
| PAK1 (wild type), from the CMV6M-PAK1 expression vector (from UniProt Q13153 1-545) (enzyme) | binds |
| PAK1, endogenous in MCF-7 cells (from UniProt Q13153 1-545) (enzyme) | binds |
